Results from the supplement of paper PMC12889115.
Some of the results follow. These are raw signals, not scaled to a control.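 Primary screen: polymyxin B was added at a level permeabilizing Salmonella outer membranes while sparing inner membranes. DMSO wells, both with and without polymyxin B, established maximum growth. Plate-to-plate variation meant each plate was ranked on its own, and the lowest-OD600 compounds were selected as hits.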

Test system: Salmonella enterica serovar Typhimurium SL1344
Assay: bacterial growth OD600 after 18 h with compound and polymyxin B; higher = more bacterial growth (less inhibition)
Settings: 50 µM, Mueller-Hinton broth

SMILES	bacterial growth OD600 (polymyxin B 0.75 µg/mL)	bacterial growth OD600 (polymyxin B 1 µg/mL)
COC(C(=O)NCc1nc(-c2ccc(NC(=O)Cc3ccccc3)cc2)oc1C)c1ccccc1 (centres undefined)	0.009	
CC#CCN1C(=O)NC(CCc2ccccc2)(C2CCN(Cc3ccc4c(c3)CCCN4C)CC2)C1=O (centres undefined)	0.799	
CCCc1cc(C(=O)NCC2Cc3cc(-c4ccnc(SC)n4)cc(Cl)c3O2)n(C)n1 (centres undefined)	0.004	
Cc1nc(N2CCCC(C(=O)NCc3cc(F)ccc3F)C2)nc2cc(S(C)(=O)=O)ccc12 (centres undefined)	1.03	
COc1ccc(NC(=O)CCC2CCN(Cc3ccc(Cl)s3)CC2)c(OC)c1		0.939
COc1ccc(CN2CCN(Cc3nc(-c4ccccc4)cs3)CC2CCO)cc1C (centres undefined)		0.607
CC1(C)CC(CCNC(=O)CCC2(Cc3ccsc3)CCC(=O)N2)(c2ccccc2)CCO1 (centres undefined)	0.867	
CN(C(=O)CC(c1cccc(O)c1)c1ccccc1Cl)C1CCOCC1 (centres undefined)	0.694	
CC(C)c1ccc(NC2CCCN(C(=O)C3CCN(C(=O)N(C)C)CC3)C2)cc1 (centres undefined)		0.943
O=C(NC1CCCN(CCc2ccccc2)C1)c1cccnc1 (centres undefined)		0.946
COc1cccc(O)c1CN1CCC(C(Cc2ccccc2F)N(C)C(=O)c2ccoc2C)CC1 (centres undefined)	0.858	
COc1ccc(-c2cn3c(C(=O)N4CCN5CCCC5C4)csc3n2)cc1F (centres undefined)	0.8	
Cc1ccc(CN(C)C(=O)C2CCC(=O)N(CCCN3CCOCC3)C2)o1 (centres undefined)		0.771
CCOC(=O)C1(Cc2cccc(Cl)c2)CCCN(C(=O)CCCn2cncn2)C1 (centres undefined)	0.703	
Fc1ccccc1CN1CCCC(NC2CSCCSC2)C1 (centres undefined)	0.748	
CS(=O)(=O)N1CCC(Oc2ccccc2C(=O)NCCCn2cccn2)CC1		0.887
O=C(CSc1ccccc1)NC1CC(=O)N(Cc2cccc(F)c2)C1 (centres undefined)		0.991
CN(CCc1ccccc1)Cc1cc(C(=O)N2CCCC2)no1		1.26
CCO[C@H]1[C@H](NC(=O)c2cccnc2)c2ccccc2C12CCN(C(=O)CCN1CCCO1)CC2	0.844	

Fetched by compound from above, two records:
SMILES	bacterial growth OD600 (polymyxin B 0.75 µg/mL)	bacterial growth OD600 (polymyxin B 1 µg/mL)
COc1ccc(CN2CCN(Cc3nc(-c4ccccc4)cs3)CC2CCO)cc1C (centres undefined)		0.607
CC#CCN1C(=O)NC(CCc2ccccc2)(C2CCN(Cc3ccc4c(c3)CCCN4C)CC2)C1=O (centres undefined)	0.799	
